Values from PubChem BioAssay AID1508597 (Cure First, 2020).
Aim: 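Knock-downs altering ovarian cancer cell survival with or without PARP inhibitor rucaparib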 (primary screen). System: human ovarian carcinoma lines grown from tumours: OCI-P5x (papillary serous) and OCI-C5x (clear cell). Knock-down reagent: siRNA pool against human genes, 1.25 pmol siRNA per well. Timing: 72 h or 96 h, depending on the cell culture. Challenge: rucaparib 20 µM (about IC30) or vehicle, present until read-out. Rucaparib or vehicle: Rucaparib. Cell line: OCI-P5x (serous). Measured: 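Luminescent ATP-based viability assay read 72 or 96 h after transfection, depending on culture, given as normalised percent viability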. Reading the numbers: viability, normalised: higher = more viable cells remaining. Rule for the call: 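a well counts as a hit if its normalised viability is under 80 percent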. Calls: active = viability under 80%; inactive = viability 80% or more.
This is an unselected part of the about 2,100 reagents, in one setting of the screen. 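Calls flag viability under 80% in either arm, not effects specific to rucaparib; the reference for percent is not stated.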 Entries without a mark were called inactive. No sequences are given here. Not given: the 100% reference.

no.	gene symbol	technical replicate	viability, normalised (%)
1	IL11 (interleukin 11)	1	64 (active)
2	IL11 (interleukin 11)	2	63.2 (active)
3	IL11 (interleukin 11)	3	66.3 (active)
4	EEF1E1 (eukaryotic translation elongation factor 1 epsilon 1)	1	115
5	EEF1E1 (eukaryotic translation elongation factor 1 epsilon 1)	2	124
6	EEF1E1 (eukaryotic translation elongation factor 1 epsilon 1)	3	107
7	MIER1 (MIER1 transcriptional regulator)	1	53.3 (active)
8	MIER1 (MIER1 transcriptional regulator)	2	49.1 (active)
9	MIER1 (MIER1 transcriptional regulator)	3	48.3 (active)
10	PHF11 (PHD finger protein 11)	1	40.8 (active)
11	PHF11 (PHD finger protein 11)	2	46.3 (active)
12	PHF11 (PHD finger protein 11)	3	44.1 (active)

Reformatted: entries from further up
EEF1E1 (eukaryotic translation elongation factor 1 epsilon 1), technical replicate 2 → viability, normalised (%): 124
EEF1E1 (eukaryotic translation elongation factor 1 epsilon 1), technical replicate 3 → viability, normalised (%): 107

Continued:
no.	gene symbol	technical replicate	viability, normalised (%)
13	TOP3A (DNA topoisomerase III alpha)	1	93.3
14	TOP3A (DNA topoisomerase III alpha)	2	97.3
15	TOP3A (DNA topoisomerase III alpha)	3	75.9 (active)
16	MED25 (mediator complex subunit 25)	1	54.3 (active)
17	MED25 (mediator complex subunit 25)	2	68.7 (active)
18	MED25 (mediator complex subunit 25)	3	70 (active)
19	STK35 (serine/threonine kinase 35)	1	82.9
20	STK35 (serine/threonine kinase 35)	2	73.9 (active)
21	STK35 (serine/threonine kinase 35)	3	74.9 (active)
22	ZNF623 (zinc finger protein 623)	1	78.7 (active)
23	ZNF623 (zinc finger protein 623)	2	59.1 (active)
24	ZNF623 (zinc finger protein 623)	3	73 (active)
